Data as given in PubChem BioAssay AID1259425 (University of Nebraska Medical Center, 2018).

- Assay: 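Seek colon cancer weak points whose silencing resembles KSR1 loss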 (primary screen)
- System: HCT116 human colon cancer cells
- Reagent: siRNA pool against human genes, 50 nM siRNA
- Detection: 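mRNA of six signature genes measured together by branched-DNA assay after 50 nM siRNA pool, blank removed, divided by geometric mean of two housekeeping genes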
- Scale: BNIP3L mRNA: higher = more BNIP3L transcript after knockdown; NDRG1 mRNA: higher = more NDRG1 transcript after knockdown; BNIP3 mRNA: higher = more BNIP3 transcript after knockdown; ALDOC mRNA: higher = more ALDOC transcript after knockdown; ACSL5 mRNA: higher = more ACSL5 transcript after knockdown
The deposit covers about 14,000 reagents; this is an unselected part. Not stated in the record: the time to read-out.

no.	gene symbol	BNIP3L mRNA, set 1	NDRG1 mRNA, set 1	BNIP3 mRNA, set 1	ALDOC mRNA, set 1	ACSL5 mRNA, set 1
1	FXYD1	0.059	0.209	0.243	0.026	0.119
2	RNASET2	0.0758	0.165	0.235	0.0273	0.13
3	RANGAP1	0.077	0.108	0.245	0.0241	0.146
4	IQGAP1	0.195	0.0844	0.343	0.0215	0.104
5	FIG4	0.102	0.215	0.321	0.0442	0.16
6	RELN	0.0708	0.133	0.349	0.0298	0.171
7	HIPK3	0.088	0.111	0.198	0.00814	0.217
8	IP6K2	0.162	0.149	0.785	0.0391	0.267
9	CCDC3	0.17	0.316	0.218	0.0466	0.224
10	ARHGAP31	0.165	0.191	0.256	0.0935	0.243
11	A1CF	0.0899	0.108	0.236	0.025	0.213
12	NECAP2	0.0961	0.13	0.285	0.0542	0.171
13	DPM3	0.207	0.321	0.442	0.0703	0.286
14	BOK	0.0669	0.084	0.352	0.0218	0.102
15	NDST1	0.151	0.245	0.347	0.0263	0.345
16	FUCA2	0.102	0.315	0.312	0.0484	0.18
17	PHF20	0.104	0.11	0.405	0.0277	0.16
18	SLC25A24	0.178	0.347	0.492	0.0456	0.314
19	MAPK15	0.0466	0.138	0.356	0.00907	0.21
20	WAS	0.12	0.0897	0.273	0.0408	0.141

2 entries from above, showing only “BNIP3 mRNA, set 1”.
PHF20 = 0.405
SLC25A24 = 0.492
